Test results taken from publication PMC12860950.
Results are given in words; binding and its absence hold for the method and conditions named. Binding seen in cells or lysates may run through a third protein. Some binding calls cover weakened binding; strength is not graded here.

The chains behind the UniProt entries cited, without tags or fusion partners.
UniProt P68101: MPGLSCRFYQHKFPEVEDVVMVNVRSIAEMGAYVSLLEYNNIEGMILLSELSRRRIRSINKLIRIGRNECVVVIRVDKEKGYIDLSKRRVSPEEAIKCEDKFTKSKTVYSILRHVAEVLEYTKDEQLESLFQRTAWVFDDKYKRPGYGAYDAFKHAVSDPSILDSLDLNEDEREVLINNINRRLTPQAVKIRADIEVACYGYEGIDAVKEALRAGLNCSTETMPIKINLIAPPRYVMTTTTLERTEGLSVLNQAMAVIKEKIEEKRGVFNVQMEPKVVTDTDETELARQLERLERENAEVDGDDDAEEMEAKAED
UniProt P81795: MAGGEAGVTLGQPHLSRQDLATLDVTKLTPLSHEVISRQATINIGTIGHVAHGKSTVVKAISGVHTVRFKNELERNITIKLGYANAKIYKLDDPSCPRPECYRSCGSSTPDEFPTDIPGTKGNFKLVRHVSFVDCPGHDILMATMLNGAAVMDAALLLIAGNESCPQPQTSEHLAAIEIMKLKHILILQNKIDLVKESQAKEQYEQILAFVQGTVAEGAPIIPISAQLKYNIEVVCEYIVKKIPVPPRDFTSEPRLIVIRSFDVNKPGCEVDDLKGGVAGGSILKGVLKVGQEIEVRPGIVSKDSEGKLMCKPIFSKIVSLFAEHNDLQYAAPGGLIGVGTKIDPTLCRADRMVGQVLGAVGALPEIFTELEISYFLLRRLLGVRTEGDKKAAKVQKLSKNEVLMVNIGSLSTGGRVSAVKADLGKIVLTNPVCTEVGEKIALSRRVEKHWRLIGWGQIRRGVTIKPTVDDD

Target: eukaryotic translation initiation factor eIF2 α subunit (rat (endogenous in rat diploid fibroblasts)) (UniProt P68101)
Experiment: co-IP; eIF2α antibody (or control IgG) conjugated to magnetic Dynabeads M270 Epoxy; lysates of WT and CDC123-A109V rat fibroblasts placed at 33.8 °C or 37 °C for about 18 h; IP lysis buffer 150 mM NaCl, 50 mM Tris-HCl pH 8.0, 1% Triton X-100; 2 h at 4 °C; immunoblot of the eIF2 subunits; less co-precipitate from CDC123-A109V cells at 37 °C

binding: binds
Substance: eukaryotic translation initiation factor eIF2 γ subunit (from UniProt P81795 1-472)
